According to article PMC10938740:
These are yes or no findings as the source states them, for the method shown. Binding seen in cells or lysates may run through a third protein. A yes stands for co-enrichment or nearness to the bait. Other partners may have been found.

By UniProt entry, the sequences of proteins in these tests, tags left out.
UniProt Q13111: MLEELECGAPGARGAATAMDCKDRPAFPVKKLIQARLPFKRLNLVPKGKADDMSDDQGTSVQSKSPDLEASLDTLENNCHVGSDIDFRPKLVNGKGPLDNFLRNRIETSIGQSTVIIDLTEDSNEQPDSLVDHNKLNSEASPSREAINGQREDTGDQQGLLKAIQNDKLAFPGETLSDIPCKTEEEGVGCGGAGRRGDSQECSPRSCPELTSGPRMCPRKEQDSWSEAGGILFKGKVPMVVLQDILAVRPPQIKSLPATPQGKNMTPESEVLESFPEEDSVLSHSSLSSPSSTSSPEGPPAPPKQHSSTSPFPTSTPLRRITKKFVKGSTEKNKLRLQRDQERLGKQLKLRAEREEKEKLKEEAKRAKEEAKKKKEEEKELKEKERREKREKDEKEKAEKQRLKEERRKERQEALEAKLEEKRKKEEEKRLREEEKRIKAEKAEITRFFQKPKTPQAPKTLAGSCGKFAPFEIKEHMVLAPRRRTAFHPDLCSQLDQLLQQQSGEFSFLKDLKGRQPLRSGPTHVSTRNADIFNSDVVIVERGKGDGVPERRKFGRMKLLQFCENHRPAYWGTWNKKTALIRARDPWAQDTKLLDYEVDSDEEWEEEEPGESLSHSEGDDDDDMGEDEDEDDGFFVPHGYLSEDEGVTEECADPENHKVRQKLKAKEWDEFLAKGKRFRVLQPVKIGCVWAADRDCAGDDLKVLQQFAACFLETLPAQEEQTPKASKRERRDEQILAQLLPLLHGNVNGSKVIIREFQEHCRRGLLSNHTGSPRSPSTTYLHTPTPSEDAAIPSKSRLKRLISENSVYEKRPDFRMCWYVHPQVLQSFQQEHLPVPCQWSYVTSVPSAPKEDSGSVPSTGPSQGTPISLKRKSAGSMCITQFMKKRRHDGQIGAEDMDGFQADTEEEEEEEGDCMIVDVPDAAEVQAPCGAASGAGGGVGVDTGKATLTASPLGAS
UniProt Q16531: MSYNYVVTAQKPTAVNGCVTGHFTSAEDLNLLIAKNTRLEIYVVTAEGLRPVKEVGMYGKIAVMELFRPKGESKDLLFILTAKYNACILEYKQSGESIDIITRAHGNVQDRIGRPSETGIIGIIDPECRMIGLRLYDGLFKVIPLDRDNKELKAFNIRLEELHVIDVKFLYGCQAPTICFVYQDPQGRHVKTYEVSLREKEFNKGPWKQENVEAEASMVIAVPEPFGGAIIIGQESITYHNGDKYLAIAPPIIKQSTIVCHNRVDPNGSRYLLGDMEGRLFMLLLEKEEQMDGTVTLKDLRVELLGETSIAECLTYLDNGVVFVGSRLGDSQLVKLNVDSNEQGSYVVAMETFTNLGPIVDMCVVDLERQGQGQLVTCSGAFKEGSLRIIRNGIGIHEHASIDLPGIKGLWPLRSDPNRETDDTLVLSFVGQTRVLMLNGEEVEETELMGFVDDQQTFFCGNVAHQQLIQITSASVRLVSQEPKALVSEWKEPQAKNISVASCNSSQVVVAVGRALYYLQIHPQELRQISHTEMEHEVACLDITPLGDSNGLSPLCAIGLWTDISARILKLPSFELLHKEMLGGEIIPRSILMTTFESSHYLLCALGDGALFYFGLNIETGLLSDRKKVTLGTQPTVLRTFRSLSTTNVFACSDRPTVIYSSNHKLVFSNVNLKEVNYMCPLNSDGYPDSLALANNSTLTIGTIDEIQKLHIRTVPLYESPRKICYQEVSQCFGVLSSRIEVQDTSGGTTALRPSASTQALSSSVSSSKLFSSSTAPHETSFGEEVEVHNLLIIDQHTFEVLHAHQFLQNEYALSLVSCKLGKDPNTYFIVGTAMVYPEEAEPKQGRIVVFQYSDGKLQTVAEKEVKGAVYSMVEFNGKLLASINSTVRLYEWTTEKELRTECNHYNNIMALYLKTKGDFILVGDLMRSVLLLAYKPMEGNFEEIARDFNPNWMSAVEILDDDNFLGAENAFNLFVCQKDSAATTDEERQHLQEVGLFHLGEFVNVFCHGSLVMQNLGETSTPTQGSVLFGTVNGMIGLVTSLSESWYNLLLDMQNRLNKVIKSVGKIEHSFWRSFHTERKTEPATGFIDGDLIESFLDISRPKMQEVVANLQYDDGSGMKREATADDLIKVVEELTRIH
UniProt P54727: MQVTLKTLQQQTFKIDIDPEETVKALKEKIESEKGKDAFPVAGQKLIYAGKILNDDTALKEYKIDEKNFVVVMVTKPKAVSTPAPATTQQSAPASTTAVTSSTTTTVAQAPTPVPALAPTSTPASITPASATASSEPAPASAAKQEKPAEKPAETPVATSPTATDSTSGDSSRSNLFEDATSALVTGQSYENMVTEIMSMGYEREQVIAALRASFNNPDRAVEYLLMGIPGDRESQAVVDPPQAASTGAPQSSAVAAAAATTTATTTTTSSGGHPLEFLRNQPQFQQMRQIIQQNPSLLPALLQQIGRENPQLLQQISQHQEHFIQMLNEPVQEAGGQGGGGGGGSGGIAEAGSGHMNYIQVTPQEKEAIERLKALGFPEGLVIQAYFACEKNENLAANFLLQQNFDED
UniProt Q92878: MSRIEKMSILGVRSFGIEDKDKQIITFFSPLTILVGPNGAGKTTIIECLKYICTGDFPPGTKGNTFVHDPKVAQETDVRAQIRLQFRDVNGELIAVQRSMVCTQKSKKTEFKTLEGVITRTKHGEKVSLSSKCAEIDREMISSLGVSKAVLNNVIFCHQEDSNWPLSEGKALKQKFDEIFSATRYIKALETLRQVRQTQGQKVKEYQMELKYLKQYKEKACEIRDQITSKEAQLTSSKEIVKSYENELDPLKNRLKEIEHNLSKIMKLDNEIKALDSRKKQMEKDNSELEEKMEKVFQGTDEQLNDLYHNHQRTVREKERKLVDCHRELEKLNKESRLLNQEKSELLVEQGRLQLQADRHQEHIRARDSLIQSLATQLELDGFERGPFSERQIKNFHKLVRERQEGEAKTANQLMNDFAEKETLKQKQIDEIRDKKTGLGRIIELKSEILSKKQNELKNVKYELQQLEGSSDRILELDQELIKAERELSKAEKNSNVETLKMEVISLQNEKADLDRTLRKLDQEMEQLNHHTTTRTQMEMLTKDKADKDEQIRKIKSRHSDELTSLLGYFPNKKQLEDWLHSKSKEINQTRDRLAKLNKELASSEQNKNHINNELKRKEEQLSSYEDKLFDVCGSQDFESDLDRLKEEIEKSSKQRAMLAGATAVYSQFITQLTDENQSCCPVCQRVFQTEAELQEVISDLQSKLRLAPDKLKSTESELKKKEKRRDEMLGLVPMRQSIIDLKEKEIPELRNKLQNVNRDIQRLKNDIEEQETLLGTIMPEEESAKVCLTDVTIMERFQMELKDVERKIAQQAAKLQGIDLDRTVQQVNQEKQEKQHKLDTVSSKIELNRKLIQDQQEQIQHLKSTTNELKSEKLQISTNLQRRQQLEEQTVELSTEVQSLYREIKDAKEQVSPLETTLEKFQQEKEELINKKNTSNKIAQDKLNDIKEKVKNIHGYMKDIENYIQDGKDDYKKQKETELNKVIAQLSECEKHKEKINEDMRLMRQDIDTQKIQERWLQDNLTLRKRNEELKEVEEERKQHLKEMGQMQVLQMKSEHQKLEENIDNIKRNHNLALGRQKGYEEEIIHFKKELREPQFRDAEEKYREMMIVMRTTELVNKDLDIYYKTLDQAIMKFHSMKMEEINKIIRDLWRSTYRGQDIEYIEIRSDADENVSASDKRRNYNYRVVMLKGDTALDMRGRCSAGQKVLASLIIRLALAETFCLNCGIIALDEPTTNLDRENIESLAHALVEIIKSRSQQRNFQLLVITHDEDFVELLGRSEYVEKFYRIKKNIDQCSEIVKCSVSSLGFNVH
UniProt Q12888: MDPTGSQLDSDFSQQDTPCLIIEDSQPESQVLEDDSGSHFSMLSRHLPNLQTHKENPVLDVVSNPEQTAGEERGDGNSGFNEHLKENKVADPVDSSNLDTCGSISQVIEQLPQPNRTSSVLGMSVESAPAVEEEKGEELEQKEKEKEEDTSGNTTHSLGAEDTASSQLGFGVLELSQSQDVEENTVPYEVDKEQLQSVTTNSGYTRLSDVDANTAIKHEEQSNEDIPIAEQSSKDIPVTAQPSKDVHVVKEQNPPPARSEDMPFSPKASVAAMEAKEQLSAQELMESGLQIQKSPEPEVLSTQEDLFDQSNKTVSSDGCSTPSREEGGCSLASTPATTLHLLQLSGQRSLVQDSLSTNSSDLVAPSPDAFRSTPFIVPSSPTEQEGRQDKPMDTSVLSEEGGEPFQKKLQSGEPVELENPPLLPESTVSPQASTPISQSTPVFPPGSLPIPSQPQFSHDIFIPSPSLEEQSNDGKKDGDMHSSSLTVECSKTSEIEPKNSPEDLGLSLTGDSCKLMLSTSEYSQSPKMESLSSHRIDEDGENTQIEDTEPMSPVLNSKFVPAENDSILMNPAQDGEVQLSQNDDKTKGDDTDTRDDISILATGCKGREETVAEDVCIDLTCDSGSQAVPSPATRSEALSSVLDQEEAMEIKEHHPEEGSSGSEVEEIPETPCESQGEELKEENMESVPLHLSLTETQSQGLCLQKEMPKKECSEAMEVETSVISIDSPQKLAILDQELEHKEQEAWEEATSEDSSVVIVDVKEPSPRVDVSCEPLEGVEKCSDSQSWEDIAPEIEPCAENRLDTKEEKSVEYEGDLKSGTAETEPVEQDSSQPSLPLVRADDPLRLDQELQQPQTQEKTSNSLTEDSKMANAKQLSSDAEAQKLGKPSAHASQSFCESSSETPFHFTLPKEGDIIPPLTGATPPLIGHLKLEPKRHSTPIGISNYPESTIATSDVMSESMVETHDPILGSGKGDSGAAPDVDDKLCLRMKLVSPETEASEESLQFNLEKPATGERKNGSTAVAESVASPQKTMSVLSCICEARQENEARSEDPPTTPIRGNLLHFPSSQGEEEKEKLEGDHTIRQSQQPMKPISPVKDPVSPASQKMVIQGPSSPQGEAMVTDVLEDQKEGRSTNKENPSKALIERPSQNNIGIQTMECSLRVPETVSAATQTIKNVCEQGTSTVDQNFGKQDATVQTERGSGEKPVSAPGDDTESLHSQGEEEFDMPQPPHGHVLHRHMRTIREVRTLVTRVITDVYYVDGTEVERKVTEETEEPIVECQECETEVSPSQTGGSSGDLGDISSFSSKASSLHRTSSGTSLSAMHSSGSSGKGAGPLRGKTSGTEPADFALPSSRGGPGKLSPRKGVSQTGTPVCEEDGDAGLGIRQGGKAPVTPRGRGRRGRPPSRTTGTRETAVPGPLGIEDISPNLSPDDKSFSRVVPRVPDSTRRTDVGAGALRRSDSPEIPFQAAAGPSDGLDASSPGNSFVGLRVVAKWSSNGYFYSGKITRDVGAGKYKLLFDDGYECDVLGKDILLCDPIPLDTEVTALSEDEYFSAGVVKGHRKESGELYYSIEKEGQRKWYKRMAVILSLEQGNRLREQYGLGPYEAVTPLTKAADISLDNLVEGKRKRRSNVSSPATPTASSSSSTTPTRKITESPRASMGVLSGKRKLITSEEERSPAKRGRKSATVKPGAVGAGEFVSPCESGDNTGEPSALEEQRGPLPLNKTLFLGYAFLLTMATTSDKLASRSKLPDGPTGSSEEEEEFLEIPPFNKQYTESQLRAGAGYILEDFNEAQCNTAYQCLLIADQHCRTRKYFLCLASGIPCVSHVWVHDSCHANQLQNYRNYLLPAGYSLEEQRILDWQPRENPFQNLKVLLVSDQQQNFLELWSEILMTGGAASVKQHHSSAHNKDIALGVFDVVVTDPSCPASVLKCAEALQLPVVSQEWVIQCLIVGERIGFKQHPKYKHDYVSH

Target: T1, TRIM29, endogenous in RWPE-1 (human (endogenous in RWPE-1)) (UniProt Q14134)
T1 sequence: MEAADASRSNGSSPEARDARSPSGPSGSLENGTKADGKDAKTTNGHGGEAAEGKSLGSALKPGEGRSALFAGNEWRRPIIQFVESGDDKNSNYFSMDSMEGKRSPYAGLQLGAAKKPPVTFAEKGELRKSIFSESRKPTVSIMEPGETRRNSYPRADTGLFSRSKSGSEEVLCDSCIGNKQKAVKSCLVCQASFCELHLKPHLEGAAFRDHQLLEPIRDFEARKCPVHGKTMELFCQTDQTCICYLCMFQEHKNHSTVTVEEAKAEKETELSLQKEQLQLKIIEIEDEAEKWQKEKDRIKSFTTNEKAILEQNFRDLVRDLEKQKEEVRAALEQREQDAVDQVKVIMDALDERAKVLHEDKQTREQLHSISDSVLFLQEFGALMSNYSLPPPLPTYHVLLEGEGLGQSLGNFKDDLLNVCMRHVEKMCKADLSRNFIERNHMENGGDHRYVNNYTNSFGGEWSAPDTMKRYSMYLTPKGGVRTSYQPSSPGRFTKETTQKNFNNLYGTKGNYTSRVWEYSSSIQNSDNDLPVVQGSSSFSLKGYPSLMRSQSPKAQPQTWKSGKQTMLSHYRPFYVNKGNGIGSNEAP
Assay: affinity purification with mass spectrometry; immunoprecipitation of endogenous TRIM29 from the nuclear fraction of RWPE-1, IgG control, LC-MS/MS of the precipitate

binding, binds:
CHAF1A (from UniProt Q13111 1-956), DDB1 (from UniProt Q16531 1-1140), MSH6 (from UniProt P52701 1-1360), RAD23B (from UniProt P54727 1-409), RAD50 (from UniProt Q92878 1-1312), TP53BP1 (from UniProt Q12888 1-1972)
